# Assay results reported in patent publication EP1072609A2, “Cytoprotective agents comprising prosaposin-related peptides” (Sakanaka, Masahiro, priority 1999, dated 2001).
# “Also recorded” adds a separate entry of the source. Not every detail of the peptide structures is certain; ends, links or a residue may be inferred. Ends that are not written are not given here.
# Tests used:
# cultured neurons = assay: Neurite outgrowth of cultured neurons at low concentrations; type: cell-based, rat; conditions: low concentration range 1 - 100 fg/ml
# [1] = system: neurons in the ischemic penumbra of the cerebral cortex; conditions: intracerebroventricular infusion; cited from earlier work
# [2] = system: Neurons from the cerebral cortices of 17-day-old rat embryos; assay: Apoptosis-like neuron death caused by sodium nitroprusside (SNP), survival rate by alamer blue; type: cell-based
# [3] = system: cardiac muscle cells (myocytes); assay: Survival of cardiac myocytes in glucose-free medium (western blotting of α-actinin); type: cell-based, rat
# Bcl-xL protein [4] = assay: Western blotting of Bcl-xL protein in cultured cardiac myocytes; type: cell-based, rat; conditions: 24 hour cultivation
# Bcl-xL protein [5] = assay: Western blotting of Bcl-xL protein in cultured neurons; type: cell-based, rat; conditions: cultured for 48 hours
# [6] = Step-down passive avoidance learning experiment after 3-minutes transient forebrain ischemia; type: in vivo, Mongolian gerbil
# [7] = system: hippocampal CA1 pyramidal neurons; assay: Neuronal density of the hippocampal CA1 region after 3-minutes transient forebrain ischemia; type: in vivo, Mongolian gerbil
# NS20Y neuroblastoma = conditions: U.S. Patents 5,571,787 and others; cited from earlier work
# [8] = system: TUNEL-positive neurons in the hippocampal CA1 region; assay: TUNEL staining of the hippocampal CA1 region after 3-minutes transient forebrain ischemia; type: in vivo, Mongolian gerbil; conditions: 20 ng/day continuous infusion into left lateral ventricle for 4 days, started 3 days after ischemia; 1 week after ischemia
# [9] = 20 ng/day into cerebral ventricle from 3 days to 31 days after ischemia (28 days)
# [10] = 20 ng/day into lateral ventricle from 3 days to 7 days after ischemia (4 days)
sequence,measurement,setting,value
LSELIINNATEELLIKGL [18-MP],neurite outgrowth,cultured neurons,did not facilitate
same,cortical infarction,[1],ameliorates
same,place navigation disability,[1],ameliorates
same,concentration range significantly suppressing apoptosis-like neuron death (apoptosis of neurons),"[2]; 18-MP addition after SNP treatment (100 µM, 10 minutes)",1 to 100 fg/mL
same,concentration range significantly suppressing apoptosis-like neuron death (apoptosis of neurons),"[2]; 18-MP addition before and after SNP treatment (100 µM, 10 minutes)",1 to 100 fg/mL
same,metabolic activity (survival rate) of cultured neurons,[2]; without SNP treatment,did not significantly affect
same,concentrations suppressing a decline in the amount of striated muscle-specific α-actinin,[3]; 4-5 day treatment,10^-2 - 10^4 fg/ml
same,cardiac muscle cells (myocytes) observed in the wells,"[3]; 4-5 days, 0.01 fg/ml, 1 fg/ml, 100 fg/ml and 10 pg/ml",large numbers
same,survival of cardiac myocytes,[3]; 10^6 fg/ml,not facilitated
same,amount of troponin T detected in each well (number or survival rate of cardiac muscle cells),Bcl-xL protein [4],no change
same,concentration range significantly increasing the expression of Bcl-xL protein in neurons,Bcl-xL protein [5],1 to 100 fg/mL
same,response latency in passive avoidance learning experiment compared with vehicle-infused ischemic group,[6]; 4 ng/day,no significant effect
same,response latency in passive avoidance learning experiment compared with vehicle-infused ischemic group,[6]; [9],significantly prolonged
same,response latency in passive avoidance learning experiment compared with non-infused ischemic animals,[6]; [10],Significant increases; also recorded: prolonged
same,hippocampal CA1 neurons compared with vehicle-infused ischemic group,[7]; 4 ng/day,no significant effect
same,hippocampal CA1 neurons compared with vehicle-infused ischemic group,[7]; [9],rescued a significant number; also recorded: reduced
same,neuron density of the hippocampal CA1 region compared with non-infused ischemic animals,[7]; [10],Significant increases; also recorded: reduced
same,concentration range facilitating process elongation / promoting neurite outgrowth,NS20Y neuroblastoma,0.01 to 0.5 µg/mL
same,"TUNEL-positive neurons in the hippocampal CA1 region, number compared with control ischemic animals",[8],significantly less numerous; also recorded: significant reduction; also recorded: significantly decreased
